Measurements: patent US20160220569A1, “CDK4/6 Inhibitor Dosage Formulations For The Protection Of Hematopoietic Stem And Progenitor Cells During Chemotherapy” (G1 Therapeutics, Inc., priority 2015, published 2016)
Where two headings read alike, the source gives them in different places. The name of at least one read-out is uncertain.

Experiments:
[1] = PK comparison of Compound 1 clinical data with literature PK of palbociclib; format: in vivo, human
[2] = 150 mg oral; cited from earlier work

Structure (SMILES) | Vz/F ([1]; 96 mg/m^2 IV) [L] | Vz/F ([1]; […]^2 IV) [L] | Vz/F [2] [L]
CN1CCN(c2ccc(Nc3ncc4cc5n(c4n3)C3(CCCCC3)CNC5=O)nc2)CC1 [Compound 1, 2′-((5-(4-methylpiperazin-1-yl)pyridin-2-yl)amino)-7′,8′-dihydro-6′H-spiro[cyclohexane-1,9′-pyrazino[1′,2′:1,5]pyrrolo[2,3-d]pyrimidin]-6′-one] | 940 | 729 | 
CC(=O)c1c(C)c2cnc(Nc3ccc(N4CCNCC4)cn3)nc2n(C2CCCC2)c1=O [palbociclib, 6-acetyl-8-cyclopentyl-5-methyl-2-(5-piperazin-1-yl-pyridin-2-ylammino)-8H-pyrido-[2,3-d]-pyrimidin-7-one] |  |  | 3241
